Measured values published in PubChem BioAssay AID504834 (National Center for Advancing Translational Sciences (NCATS), 2011).
Hit rate of the full screen: of about 320,000 compounds, about 22,000 (6.9%) were called active. This list was built around the results that the source calls inconclusive (neither active nor inactive); the mix of calls is not that of the screen. Calls come from the whole dose curve; as a rule, active = well fitted inhibition curve with a large enough effect; inconclusive = small, poorly fitted or top-dose-only effect, or another doubt; inactive = no such curve, though single readings can be large or run the other way. Potencies beside an inconclusive call are fits to weak or partial responses and may not hold up.

Experiment: Primary qHTS for delayed death inhibitors of the malarial parasite plastid, 96 hour incubation
Details: P. falciparum luciferase reporter growth; series mostly up to 28.7 µM
How it was run: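 Infected RBCs, 2% Hct / 0.05% parasitemia final; luciferase-reporter P. falciparum; cpd 96 h, 37 C, 5% CO2; luciferase detection reagent; luminescence.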
Potency is the fitted concentration of half-maximal effect.

SMILES	Potency
COc1cc2c(cc1OC)C1O[C@](c3ccsc3)(C2)Oc2cc(-c3ccccc3)oc(=O)c21	active: 1.51 µM
O=c1nc2n(c3ncccc13)CCC2	inconclusive: 11.7 µM [inhibitor, partial curve, poor fit]
CC(C)c1ccc(C(C(=O)NC(C)(C)C)N(C(=O)CNC(=O)c2ccco2)c2cccnc2)cc1 (centres undefined)	inconclusive: 2.62 µM [inhibitor, partial curve, poor fit]
COc1ccccc1C(=O)COC(=O)CN1C(=O)C2CC=CCC2C1=O (centres undefined)	inactive
NC(=O)C1CCN(C(=O)CSc2nc3ccccc3o2)CC1	inactive
CCCN(CC(=O)Nc1ccccc1OC)C(=O)CCC(=O)c1ccc(F)cc1	inactive
CCCCCCN1C2=NCCCN2c2ccccc21	active: 11.7 µM
CC(=O)Nc1cccc(NC(=O)CSc2ncc(C(=O)Nc3ccccc3)c(=O)n2C)c1	inactive
COc1cccc(-c2nnc3n2N=C(c2cccc(Br)c2)CS3)c1	inconclusive: 8.28 µM [inhibitor, partial curve, poor fit]
CCc1nnc(NC(=O)c2cccc(S(=O)(=O)N(C)c3ccccc3)c2)s1	inconclusive: 5.22 µM [inhibitor, partial curve]
O=C1CC(N2CCN(S(=O)(=O)c3ccc([N+](=O)[O-])cc3)CC2)C(=O)N1c1ccccc1F (centres undefined)	inconclusive: 10.4 µM [inhibitor, single point]
CC(C)OC(=O)c1nn2c(C(F)(F)F)cc(-c3ccc(Br)o3)nc2c1Br	inactive
Cc1cccc(NC(=S)N/N=C/C(C)c2ccccc2)c1C (centres undefined)	inconclusive: 9.28 µM [inhibitor, single point]
S=c1[nH]c2ccccc2n2cccc12	inconclusive: 8.28 µM [inhibitor, partial curve]
COc1ccccc1Nc1nc(-c2cccs2)cs1	inactive
COCC(=O)Nc1ccc2c(c1)OCC(=O)N2Cc1ccc(C)cc1	inconclusive: 3.7 µM [inhibitor, partial curve, poor fit]
O=C(Nc1cccc(Cl)c1)c1cc(S(=O)(=O)N2CCOCC2)cs1	inactive
O=C(CN1CCN(Cc2ccccc2)C1=O)NCc1cccs1	inconclusive: 0.928 µM [inhibitor, full curve, poor fit]
O=C(Nc1ccc(F)cc1)Nc1ccccc1N1CCCCC1	inconclusive: 11.7 µM [inhibitor, single point]
CN(NC(=O)c1ccccc1F)c1ncccc1[N+](=O)[O-]	inactive
CC(=O)c1ccc(-c2nnc(CCC(=O)N(C)Cc3c(C)nc4ccccn34)o2)s1	inconclusive: 16.5 µM [inhibitor, partial curve, poor fit]
C=CCOc1ccc2oc(=O)cc(C)c2c1	inconclusive: 0.415 µM [inhibitor, full curve, poor fit]

In another format: entries from further up.
SMILES | Potency
O=c1nc2n(c3ncccc13)CCC2 | inconclusive: 11.7 µM [inhibitor, partial curve, poor fit]
CC(C)c1ccc(C(C(=O)NC(C)(C)C)N(C(=O)CNC(=O)c2ccco2)c2cccnc2)cc1 (centres undefined) | inconclusive: 2.62 µM [inhibitor, partial curve, poor fit]

The list goes on.

SMILES	Potency
CC(=O)Oc1ccc2c3c(c(=O)oc2c1C)CCCC3	inactive
CC(=O)c1c(C)[nH]c(C(=O)OCC(=O)Nc2cc(Cl)ccc2[N+](=O)[O-])c1C	inconclusive: 18.5 µM [inhibitor, partial curve, poor fit]
Cc1ccc(S(=O)(=O)N(C)CC(=O)N2CCCCCCC2)cc1	inconclusive: 10.4 µM [inhibitor, single point]
Cc1ccc(Cl)cc1NC(=O)COC(=O)c1ccccc1O	inactive
CCOC(=O)c1c(C)cc(C)n2c1nc1ccccc12	active: 11.7 µM
COc1ccc(N2CCN(C(=S)Nc3ccc(C)cc3)CC2)cc1	inconclusive: 10.4 µM [inhibitor, single point]
O=C(Nc1ccnn1C1CCN(C2CCCC2)CC1)c1ccccc1Cl	inconclusive: 10.4 µM [inhibitor, single point]
O=C(NCC(=O)N1CCN(c2ccccc2)CC1)c1ccc(Br)o1	inconclusive: 5.22 µM [inhibitor, partial curve, poor fit]
O=C(NNC(=O)c1ccncc1)NC1CCCCC1	inactive
COc1ccc(-c2nn(CCC(=O)O)cc2/C=C2\SC(N)=NC2=O)cc1	inconclusive: 9.28 µM [inhibitor, partial curve, poor fit]
CN(CC(=O)Nc1cccc(F)c1)C(=O)/C=C/c1ccc2ccccc2n1	inactive
CCOC(=O)C1(CC2CCCCO2)CCN(S(=O)(=O)c2ccccc2)CC1 (centres undefined)	inconclusive: 13.1 µM [inhibitor, single point]
CSC1=N/C(=C/c2cccnc2)C(=O)N1Cc1ccc(Cl)cc1	inconclusive: 5.22 µM [inhibitor, partial curve]
O=C(CC1SC(N2CCCC2)=NC1=O)Nc1ccc(C(=O)NCCOc2ccccc2F)cc1 (centres undefined)	inconclusive: 8.28 µM [inhibitor, partial curve, poor fit]
O=C(NCCCN1CCOCC1)C1CCN(S(=O)(=O)c2c(Cl)cccc2Cl)CC1	inconclusive: 11.7 µM [inhibitor, partial curve]
CCCCC[C@H](O)/C=C\[C@H]1[C@H](C/C=C\CCCC(=O)O)[C@@H](O)C[C@H]1O (tested in a mixture with another compound)	inconclusive: 3.61 µM [inhibitor, partial curve]
O=C(NCCC1CCCCN1S(=O)(=O)c1cccs1)C(=O)Nc1ccc(F)cc1F (centres undefined)	inconclusive: 0.0026 µM [inhibitor, full curve, poor fit]
CC(=O)c1ccc(N2CCN(S(=O)(=O)c3cccc(S(=O)(=O)N4CCOCC4)c3)CC2)cc1	inconclusive: 4.15 µM [inhibitor, single point]
O=C(O)Cc1sc(-c2ccccc2)nc1-c1ccccc1	inactive
O=C(COC(=O)c1ccccc1SCC(=O)N1CCCC1)NC1CCCCC1	inconclusive: 18.5 µM [inhibitor, single point]
CC(Sc1ccccc1)C(=O)Nc1ccc(S(=O)(=O)N2CCOCC2)cc1 (centres undefined)	inconclusive: 18.5 µM [inhibitor, single point]
CC(=O)Nc1cccc(-c2cc(-c3c(Cl)cccc3Cl)no2)c1	inactive
